Measurements: paper PMC2583054

Biological target: HA-tagged Robo expressed pan-neuronally in Drosophila embryos (Drosophila)
Test: co-IP; lysates of 0- to 15-hour Drosophila embryos pan-neuronally expressing Myc-tagged Comm and HA-tagged Robo or Robo^SD; lysis buffer 50 mM Tris-HCl pH 7.5, 150 mM NaCl, 1% NP40, 0.5% sodium deoxycholate; protein A-agarose, 4°C; text: IP anti-myc, blot anti-HA; legend: IP anti-HA, blot anti-Myc

- binding: binds
B1: Myc-tagged Comm expressed pan-neuronally in Drosophila embryos (protein, UniProt Q24139 1-370)
chain: MISTTDYPTVETTTTAEELYAEYISAPASSMSPAAIAEHLQQNQITFEIPSAHDLRHIDALNSFNALLQRIGNAAVSYDPAPPSGWSPDGSISTEQLSKSVVLDLADLRDRSEESGESSWWSQIFGDADMHVIINYLWIGVVSSLVILSLVFILFSCYFYRKFRTWKKCNKDIRAQIHAASDSYSSHLVGCDASRLLLHQQMQHPHHRSSEAGFYQIESPPCYTIATGLPSYDEALHHQPRHFAYGMKFVYPSLAAVHHHHHCISNWEKQEPLNKLQKCKLSAAAAVEEDKADSSSSTSASASPSSSESSNLATATPAICINMPSGRQDEEVDNSDSDSAIAVAVAVAQSLQPAAPADDDCASLVVVVAA

No constants are given. Whether binding was seen depends on the method and setting. In cells and extracts the contact can be indirect. Binding can be weak; no strength is given. Tags and fused reporters may be left off the sequences shown.
